From paper PMC11304990, “Identification of mitochondrial ATP synthase as the cellular target of Ru-polypyridyl-β-carboline complexes by affinity-based protein profiling” (National Science Review, 2024) come the findings set out here.

The test system of the series is A549 cells. In words: Mitochondrial proteomics. Type of series: cell-based, human. To be noted: 10 μM, 12 h.

The structures appear in SMILES notation.

For `F[P-](F)(F)(F)(F)F.F[P-](F)(F)(F)(F)F.[Ru+2].c1ccc2c(c1)[nH]c1c(-c3ncc[nH]3)nccc12.c1cnc2c(c1)ccc1cccnc12.c1cnc2c(c1)ccc1cccnc12` [Ru5], the DAPs down-regulated is given as 19 and the DAPs up-regulated is 1. The “Differentially accumulated proteins (DAPs), total” value (|fold change| ≥ 1.8, FDR ≤ 0.01, of 556 proteins) worked out at 20.
